Data as given in PubChem BioAssay AID1224830 (NIAID, 2016).
The deposit covers about 18,000 reagents; below is a part drawn at random. About 2,900 of them (16%) were called active. 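Calls are made per well; low scores hint the gene aids the LPS response, high scores that it dampens it.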 Repeated entries: four replicate wells of each siRNA pool.

Test: 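Genes whose knock-down alters the TNF-alpha reporter response to LPS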 (primary screen)
Cells: human THP-1 monocytic leukaemia cells, TNF dual-luciferase reporter clone, PMA-differentiated to macrophage-like cells
Reagents: siRNA pool against human genes, 50 nM
Duration: LPS for 4 h, given about 3 days after siRNA transfection
Challenge: bacterial LPS (TLR4 ligand), 10 ng/ml
Measurement: 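TNF firefly reporter luminescence divided by renilla, normalised to the plate median, then turned into a robust z-score for each replicate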
Scale: TNF reporter robust z-score: higher = stronger TNF reporter response to LPS
Call rule: 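Each well counts as active if its z-score is over 2.8 or under -1.5; controls are left without a call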

gene knocked down | TNF reporter robust z-score | Outcome
EPG5 | -0.17 | inactive
EPG5 | 0.87 | inactive
EPG5 | 0.32 | inactive
GART | -0.11 | inactive
GART | 0.33 | inactive
GART | 0.15 | inactive
GART | 0.22 | inactive
STXBP4 | 0.81 | inactive
STXBP4 | 1.66 | inactive
STXBP4 | 0.51 | inactive
STXBP4 | 3.79 | active
RBX1 | 0.75 | inactive
RBX1 | 1.1 | inactive
RBX1 | 4.58 | active
RBX1 | 2.46 | inactive
CNTROB | -0.41 | inactive
CNTROB | 1.03 | inactive
CNTROB | 0.51 | inactive
CNTROB | 1.57 | inactive
EIF2S2 | -1.99 | active
EIF2S2 | -1.52 | active
EIF2S2 | -2.09 | active
EIF2S2 | -1.29 | inactive
ATAD3C | 0.3 | inactive
ATAD3C | 0.95 | inactive
ATAD3C | 0.16 | inactive
ATAD3C | 0.89 | inactive
OR52A4P | -0.39 | inactive
OR52A4P | -0.6 | inactive
OR52A4P | -1.19 | inactive
OR52A4P | -1.17 | inactive
TAS2R43 | 1.08 | inactive
TAS2R43 | 0.75 | inactive
TAS2R43 | 0.86 | inactive
TAS2R43 | 1.64 | inactive
POU1F1 | 1.44 | inactive
POU1F1 | 0.46 | inactive
POU1F1 | 0.56 | inactive
POU1F1 | -0.03 | inactive
DOCK9 | 4.87 | active
DOCK9 | 1.35 | inactive
DOCK9 | -0.55 | inactive
DOCK9 | 0.02 | inactive
GPR132 | 0.28 | inactive
GPR132 | 0.61 | inactive
GPR132 | 0.5 | inactive
GPR132 | 1.69 | inactive

17 neighbouring reagents from above, quoted:
gene knocked down | TNF reporter robust z-score | Outcome
CNTROB | 1.03 | inactive
CNTROB | 0.51 | inactive
CNTROB | 1.57 | inactive
EIF2S2 | -1.99 | active
EIF2S2 | -1.52 | active
EIF2S2 | -2.09 | active
EIF2S2 | -1.29 | inactive
ATAD3C | 0.3 | inactive
ATAD3C | 0.95 | inactive
ATAD3C | 0.16 | inactive
ATAD3C | 0.89 | inactive
OR52A4P | -0.39 | inactive
OR52A4P | -0.6 | inactive
OR52A4P | -1.19 | inactive
OR52A4P | -1.17 | inactive
TAS2R43 | 1.08 | inactive
TAS2R43 | 0.75 | inactive

The list goes on.
gene knocked down | TNF reporter robust z-score | Outcome
TEX56P | -1.26 | inactive
TEX56P | -0.67 | inactive
TEX56P | -0.57 | inactive
TEX56P | 0.48 | inactive
MAB21L3 | 0.15 | inactive
MAB21L3 | -0.49 | inactive
MAB21L3 | -1.19 | inactive
MAB21L3 | -0.65 | inactive
LMBR1 | -0.75 | inactive
LMBR1 | -0.12 | inactive
LMBR1 | 0.33 | inactive
LMBR1 | 2.82 | active
LINC00471 | 0.44 | inactive
LINC00471 | -0.08 | inactive
LINC00471 | 1.01 | inactive
LINC00471 | 1.35 | inactive
AURKC | -0.47 | inactive
AURKC | 0.9 | inactive
AURKC | 0.4 | inactive
AURKC | 1.24 | inactive
MYO1F | -1.44 | inactive
MYO1F | -1.19 | inactive
MYO1F | -1.27 | inactive
MYO1F | -1.11 | inactive
NCBP2 | -1.34 | inactive
NCBP2 | -0.52 | inactive
NCBP2 | -0.97 | inactive
NCBP2 | 0.35 | inactive
CMTM1 | -1.25 | inactive
CMTM1 | -1.01 | inactive
CMTM1 | -0.82 | inactive
CMTM1 | -0.92 | inactive
VSTM2L | -1.99 | active
VSTM2L | -1.16 | inactive
VSTM2L | -1.41 | inactive
VSTM2L | -0.71 | inactive
SF3B3 | 2.39 | inactive
SF3B3 | 1.23 | inactive
SF3B3 | 2.21 | inactive
SF3B3 | 0.52 | inactive
KLF6 | -0.27 | inactive
KLF6 | -0.13 | inactive
KLF6 | -0.3 | inactive
KLF6 | -0.04 | inactive
TUBA8 | -0.19 | inactive
TUBA8 | 0.69 | inactive
TUBA8 | 0.18 | inactive
TUBA8 | 0.55 | inactive
IDH2 | -0.01 | inactive
IDH2 | -0.31 | inactive
IDH2 | -0.64 | inactive
IDH2 | -0.5 | inactive
OARD1 | 0.74 | inactive
OARD1 | 1.42 | inactive
OARD1 | -0.96 | inactive
OARD1 | 0.04 | inactive
TRPM1 | -1.18 | inactive
TRPM1 | 0.11 | inactive
TRPM1 | -0.73 | inactive
TRPM1 | -0.59 | inactive
TDO2 | -1.09 | inactive
TDO2 | -0.49 | inactive
TDO2 | -1.11 | inactive
TDO2 | -0.07 | inactive
